Data as given in PubChem BioAssay AID1259276 (Sanger Institute, 2017).
Assay: 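Find kinases whose silencing cuts viability alone or combined with BYL719, cetuximab or trametinib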 (primary screen). Cell system: human C2BBe1 colorectal cancer cells. Reagents: siRNA pool against human genes. Treatment: DMSO vehicle, or one anchor drug: BYL719 at 1 µM, cetuximab at 5 µg/ml, or trametinib at 10 nM; exposure length not stated. Detection: 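Viability after knock-down relative to non-targeting siRNA controls, averaged across replicates, given as ratio and control-derived robust z-score, with per-drug synergy scores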. Reading the numbers: viability robust z-score, siRNA alone and viability vs control, siRNA alone: higher = more viable cells after knock-down; synergy score with BYL719: higher = stronger combined killing with BYL719; synergy score with cetuximab: higher = stronger combined killing with cetuximab; synergy score with trametinib: higher = stronger combined killing with trametinib. Hit rule: 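Called essential when knock-down alone gives a viability robust z-score below -3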. Meaning of the calls: active = essential (siRNA alone); inactive = no change (siRNA alone).
In all, the deposit lists 794 reagents; below is a random part of them. In the full data, 24 (3%) got an active call. 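Calls come only from the siRNA-alone arm; drug synergy scores do not affect them.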 A number with no mark means an inactive call. No viability above 1 is reported: the scale is capped. The record does not give: the amount of reagent, the time to read-out.

gene knocked down | viability robust z-score, siRNA alone | viability vs control, siRNA alone | synergy score with BYL719 | synergy score with cetuximab | synergy score with trametinib
GUCY2F | 0.472 | 1 | -0.00789 | -0.0115 | 0.0897
ATRX | 0.472 | 1 | -0.142 | -0.0115 | -0.0667
DTYMK | 0.472 | 1 | -0.142 | 0.0133 | -0.0155
PRKAG2 | -0.259 | 0.954 | 0.00736 | -0.0304 | -0.11
PTK6 | 0.472 | 1 | -0.0807 | -0.0115 | 0.059
DCLK1 | 0.472 | 1 | -0.142 | 0.26 | -0.0667
PRKAA1 | 0.472 | 1 | -0.142 | -0.0115 | 0.0634
PIK3CA | 0.472 | 1 | -0.0543 | 0.139 | 0.0389
MET | 0.472 | 1 | -0.142 | 0.0524 | -0.0667
CDC42BPG | 0.472 | 1 | -0.142 | -0.0115 | -0.0667
GALK2 | 0.472 | 1 | -0.0789 | -0.0115 | -0.0667
MAST1 | 0.472 | 1 | -0.142 | -0.0115 | -0.0667
PFKL | 0.472 | 1 | -0.142 | 0.0682 | -0.0423
NEK4 | 0.472 | 1 | 0.252 | 0.467 | -0.0667
SIK1 | 0.472 | 1 | 0.104 | -0.0115 | -0.0667
NME6 | 0.472 | 1 | 0.0273 | 0.178 | -0.0534
PDGFRB | 0.0759 | 0.975 | 0.0901 | 0.158 | 0.198

The list goes on, starting with the last 3 of the part before.
gene knocked down | viability robust z-score, siRNA alone | viability vs control, siRNA alone | synergy score with BYL719 | synergy score with cetuximab | synergy score with trametinib
SIK1 | 0.472 | 1 | 0.104 | -0.0115 | -0.0667
NME6 | 0.472 | 1 | 0.0273 | 0.178 | -0.0534
PDGFRB | 0.0759 | 0.975 | 0.0901 | 0.158 | 0.198
WIPF1 | 0.283 | 0.988 | 0.271 | 0.134 | 0.161
PRKACG | 0.472 | 1 | -0.0945 | 0.137 | -0.0636
CERK | 0.472 | 1 | 0.152 | -0.0115 | 0.0614
LMTK1 | -0.0933 | 0.964 | -0.09 | -0.00782 | -0.1
MECOM | 0.472 | 1 | 0.147 | -0.0115 | -0.0667
IGF2R | 0.472 | 1 | 0.203 | -0.0115 | -0.0667
CDKL5 | 0.472 | 1 | -0.00603 | -0.0115 | -0.0667
MAPKAPK3 | -0.481 | 0.94 | 0.388 | 0.0407 | 0.121
COASY | -2.27 | 0.827 | 0.119 | 0.0622 | 0.0848
EPHA7 | 0.472 | 1 | -0.0461 | 0.429 | 0.0411
NIM1K | 0.472 | 1 | -0.142 | -0.0115 | -0.0667
PIM2 | 0.472 | 1 | 0.0578 | -0.0115 | 0.132
MAP3K5 | 0.472 | 1 | -0.142 | -0.0115 | -0.0667
HIPK1 | 0.472 | 1 | -0.0996 | -0.0115 | -0.0426
DGKQ | 0.472 | 1 | -0.14 | 0.0114 | -0.038
CDK5R2 | 0.472 | 1 | -0.142 | -0.0115 | -0.0667
TAB1 | 0.472 | 1 | -0.142 | 0.0515 | -0.0667
DGKH | 0.472 | 1 | -0.0376 | -0.0115 | -0.0667
PRKCD | 0.472 | 1 | 0.124 | 0.16 | -0.0367
LIMK2 | 0.472 | 1 | 0.0747 | 0.272 | 0.122
PIM1 | 0.326 | 0.991 | 0.233 | 0.136 | -0.028
TP53 | 0.472 | 1 | 0.0851 | -0.0115 | 0.00656
CNOT1 | -0.298 | 0.951 | 0.0397 | -0.0595 | -0.112
TRPM7 | 0.472 | 1 | 0.0525 | -0.0115 | -0.0667
GNAS | 0.472 | 1 | -0.0832 | 0.116 | -0.0667
PRKD2 | 0.371 | 0.994 | -0.147 | 0.0949 | 0.122
ELP1 | 0.472 | 1 | -0.142 | -0.0115 | 0.107
NF1 | 0.472 | 1 | -0.0549 | -0.0115 | -0.0667
SYK | 0.472 | 1 | 0.141 | 0.172 | 0.125
ERN2 | -0.014 | 0.969 | -0.082 | 0.0691 | 0.175
AXL | 0.472 | 1 | -0.136 | 0.19 | -0.0667
DCK | 0.472 | 1 | 0.0263 | -0.0115 | -0.0304
TSKS | -2.02 | 0.843 | -0.184 | -0.167 | -0.176
